According to the supplement of paper PMC12823440, “Inhibitors supercharge kinase turnover through native proteolytic circuits” (Nature, 2025):
This is one part of the list. The calls rarely recur for the same compound in another form.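 Kinases, fused to nanoluciferase, were expressed in K562 cells; luminescence was measured every 4 h from 2 to 18 h as percent of control (DMSO = 100%, positive control = 0%). A time point is decreased if signal falls significantly (2 sigma). Hits were called by the authors by a rule that is not shown; the count of time points alone does not decide it.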

Sequences of proteins named here, by UniProt entry; tags and fusion partners are left off. A change or cut given only in a name is not applied to a line headed by its entry.
UniProt P00519, whole entry: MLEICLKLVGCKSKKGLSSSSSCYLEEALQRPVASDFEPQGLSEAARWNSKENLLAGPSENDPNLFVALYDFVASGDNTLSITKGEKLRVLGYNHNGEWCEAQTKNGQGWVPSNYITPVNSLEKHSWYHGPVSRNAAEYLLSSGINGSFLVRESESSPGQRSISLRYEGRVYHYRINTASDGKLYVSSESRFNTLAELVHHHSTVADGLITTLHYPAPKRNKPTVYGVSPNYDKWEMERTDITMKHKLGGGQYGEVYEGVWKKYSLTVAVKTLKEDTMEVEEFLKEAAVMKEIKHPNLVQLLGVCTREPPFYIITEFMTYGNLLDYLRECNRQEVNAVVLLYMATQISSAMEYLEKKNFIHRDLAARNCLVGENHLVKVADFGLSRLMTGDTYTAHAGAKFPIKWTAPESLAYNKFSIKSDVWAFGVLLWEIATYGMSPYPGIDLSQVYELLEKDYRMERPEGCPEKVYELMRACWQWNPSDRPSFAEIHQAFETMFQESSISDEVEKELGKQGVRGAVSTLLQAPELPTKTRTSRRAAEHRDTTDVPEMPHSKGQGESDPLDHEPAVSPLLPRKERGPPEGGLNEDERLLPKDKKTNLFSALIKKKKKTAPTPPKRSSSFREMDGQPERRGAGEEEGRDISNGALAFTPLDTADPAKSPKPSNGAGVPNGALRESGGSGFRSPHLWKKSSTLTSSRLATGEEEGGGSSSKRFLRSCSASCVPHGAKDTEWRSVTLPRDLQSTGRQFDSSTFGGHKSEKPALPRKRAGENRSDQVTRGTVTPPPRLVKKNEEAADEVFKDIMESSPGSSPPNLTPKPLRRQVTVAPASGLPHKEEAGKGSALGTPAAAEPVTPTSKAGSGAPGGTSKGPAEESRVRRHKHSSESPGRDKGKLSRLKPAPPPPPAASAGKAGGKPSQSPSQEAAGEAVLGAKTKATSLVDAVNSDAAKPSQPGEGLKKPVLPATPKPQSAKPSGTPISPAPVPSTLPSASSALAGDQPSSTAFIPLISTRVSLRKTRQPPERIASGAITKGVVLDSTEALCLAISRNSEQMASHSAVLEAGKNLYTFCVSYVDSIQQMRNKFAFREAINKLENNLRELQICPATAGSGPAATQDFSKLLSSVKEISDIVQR
UniProt P10398: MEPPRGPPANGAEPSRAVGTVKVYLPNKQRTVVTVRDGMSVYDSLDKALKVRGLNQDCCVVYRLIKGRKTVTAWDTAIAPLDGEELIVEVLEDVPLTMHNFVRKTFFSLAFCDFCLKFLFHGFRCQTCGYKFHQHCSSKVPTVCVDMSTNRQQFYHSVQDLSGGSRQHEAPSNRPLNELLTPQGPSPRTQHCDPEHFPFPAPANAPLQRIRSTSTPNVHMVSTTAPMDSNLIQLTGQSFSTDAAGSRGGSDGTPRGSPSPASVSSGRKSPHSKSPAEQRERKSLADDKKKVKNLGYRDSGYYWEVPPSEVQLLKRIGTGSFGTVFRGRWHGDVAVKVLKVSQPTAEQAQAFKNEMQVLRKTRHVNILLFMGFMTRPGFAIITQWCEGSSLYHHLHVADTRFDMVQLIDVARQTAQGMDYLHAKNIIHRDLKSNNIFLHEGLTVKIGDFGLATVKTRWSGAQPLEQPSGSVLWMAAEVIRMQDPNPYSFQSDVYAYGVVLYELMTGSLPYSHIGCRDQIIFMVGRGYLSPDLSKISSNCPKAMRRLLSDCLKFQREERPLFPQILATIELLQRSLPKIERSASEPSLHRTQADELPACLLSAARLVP
UniProt O14965: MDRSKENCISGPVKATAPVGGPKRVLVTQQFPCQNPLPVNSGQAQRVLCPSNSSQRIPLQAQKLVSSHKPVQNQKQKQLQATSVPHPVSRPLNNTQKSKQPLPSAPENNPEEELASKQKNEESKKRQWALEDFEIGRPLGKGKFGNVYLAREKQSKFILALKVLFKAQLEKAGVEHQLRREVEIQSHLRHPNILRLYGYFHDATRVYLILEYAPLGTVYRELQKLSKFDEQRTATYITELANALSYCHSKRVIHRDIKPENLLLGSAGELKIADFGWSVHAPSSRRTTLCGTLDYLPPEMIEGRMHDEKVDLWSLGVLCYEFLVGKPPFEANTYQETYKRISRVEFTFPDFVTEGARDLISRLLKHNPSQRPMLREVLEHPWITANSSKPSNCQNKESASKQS
UniProt Q96GD4, whole entry: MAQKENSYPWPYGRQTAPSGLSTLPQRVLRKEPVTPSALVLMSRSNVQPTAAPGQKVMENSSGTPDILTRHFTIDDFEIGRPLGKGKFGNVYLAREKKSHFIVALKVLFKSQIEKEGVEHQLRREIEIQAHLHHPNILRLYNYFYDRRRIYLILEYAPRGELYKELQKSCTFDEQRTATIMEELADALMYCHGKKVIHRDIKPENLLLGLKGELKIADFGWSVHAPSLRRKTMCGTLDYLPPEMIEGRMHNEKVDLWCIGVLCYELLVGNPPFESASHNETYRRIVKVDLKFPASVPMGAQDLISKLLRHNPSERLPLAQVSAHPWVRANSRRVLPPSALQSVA
UniProt P51813: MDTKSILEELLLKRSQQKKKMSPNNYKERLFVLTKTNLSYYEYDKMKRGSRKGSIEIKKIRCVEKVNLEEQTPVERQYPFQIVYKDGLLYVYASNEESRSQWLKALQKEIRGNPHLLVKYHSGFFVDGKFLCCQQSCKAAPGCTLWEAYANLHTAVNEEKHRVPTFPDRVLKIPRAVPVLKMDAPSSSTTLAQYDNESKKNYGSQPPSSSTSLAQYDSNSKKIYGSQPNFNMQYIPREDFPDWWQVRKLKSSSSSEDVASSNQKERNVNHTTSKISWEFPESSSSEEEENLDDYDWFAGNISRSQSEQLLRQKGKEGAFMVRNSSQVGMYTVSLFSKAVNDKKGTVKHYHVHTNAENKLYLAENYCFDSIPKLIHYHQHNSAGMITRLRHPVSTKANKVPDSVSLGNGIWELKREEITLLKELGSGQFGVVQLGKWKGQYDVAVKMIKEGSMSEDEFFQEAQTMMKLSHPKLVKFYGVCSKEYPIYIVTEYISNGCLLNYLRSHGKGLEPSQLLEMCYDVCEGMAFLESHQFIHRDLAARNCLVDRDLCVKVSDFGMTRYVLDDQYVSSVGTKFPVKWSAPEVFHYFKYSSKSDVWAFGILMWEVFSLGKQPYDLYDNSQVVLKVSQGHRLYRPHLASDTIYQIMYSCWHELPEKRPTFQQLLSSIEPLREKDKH
UniProt P15056, whole entry, looked up: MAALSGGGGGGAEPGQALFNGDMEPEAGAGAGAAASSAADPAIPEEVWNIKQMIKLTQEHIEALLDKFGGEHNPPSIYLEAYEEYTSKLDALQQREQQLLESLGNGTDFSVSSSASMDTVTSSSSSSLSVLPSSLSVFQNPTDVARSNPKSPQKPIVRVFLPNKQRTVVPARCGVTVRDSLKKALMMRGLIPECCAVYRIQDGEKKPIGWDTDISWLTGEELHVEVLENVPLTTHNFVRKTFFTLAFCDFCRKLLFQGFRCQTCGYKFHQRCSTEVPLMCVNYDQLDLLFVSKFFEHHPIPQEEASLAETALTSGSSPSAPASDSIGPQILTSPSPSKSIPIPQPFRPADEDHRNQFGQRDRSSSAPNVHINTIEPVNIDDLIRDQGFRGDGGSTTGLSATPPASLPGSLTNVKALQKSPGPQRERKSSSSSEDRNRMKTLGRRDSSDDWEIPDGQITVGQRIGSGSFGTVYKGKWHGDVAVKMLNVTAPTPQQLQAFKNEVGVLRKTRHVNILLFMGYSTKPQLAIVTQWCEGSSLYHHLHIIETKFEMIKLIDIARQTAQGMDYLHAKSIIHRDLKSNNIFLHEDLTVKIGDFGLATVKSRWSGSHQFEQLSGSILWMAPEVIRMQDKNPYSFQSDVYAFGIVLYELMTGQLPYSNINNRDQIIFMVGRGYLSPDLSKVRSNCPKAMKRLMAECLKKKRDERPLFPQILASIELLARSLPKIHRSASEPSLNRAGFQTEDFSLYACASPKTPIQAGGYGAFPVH
UniProt Q9UQM7, whole entry: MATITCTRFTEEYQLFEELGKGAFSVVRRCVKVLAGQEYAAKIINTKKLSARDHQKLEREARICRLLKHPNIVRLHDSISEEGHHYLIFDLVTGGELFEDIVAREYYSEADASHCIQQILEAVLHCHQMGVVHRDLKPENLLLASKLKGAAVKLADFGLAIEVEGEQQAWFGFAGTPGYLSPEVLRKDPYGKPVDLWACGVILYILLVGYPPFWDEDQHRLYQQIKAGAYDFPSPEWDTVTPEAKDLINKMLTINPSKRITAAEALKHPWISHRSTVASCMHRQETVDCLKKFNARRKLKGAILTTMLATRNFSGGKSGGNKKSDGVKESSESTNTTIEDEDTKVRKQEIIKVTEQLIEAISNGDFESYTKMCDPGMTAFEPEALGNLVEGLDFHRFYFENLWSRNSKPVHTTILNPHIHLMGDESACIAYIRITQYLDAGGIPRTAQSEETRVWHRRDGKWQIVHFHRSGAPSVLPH
UniProt Q13555: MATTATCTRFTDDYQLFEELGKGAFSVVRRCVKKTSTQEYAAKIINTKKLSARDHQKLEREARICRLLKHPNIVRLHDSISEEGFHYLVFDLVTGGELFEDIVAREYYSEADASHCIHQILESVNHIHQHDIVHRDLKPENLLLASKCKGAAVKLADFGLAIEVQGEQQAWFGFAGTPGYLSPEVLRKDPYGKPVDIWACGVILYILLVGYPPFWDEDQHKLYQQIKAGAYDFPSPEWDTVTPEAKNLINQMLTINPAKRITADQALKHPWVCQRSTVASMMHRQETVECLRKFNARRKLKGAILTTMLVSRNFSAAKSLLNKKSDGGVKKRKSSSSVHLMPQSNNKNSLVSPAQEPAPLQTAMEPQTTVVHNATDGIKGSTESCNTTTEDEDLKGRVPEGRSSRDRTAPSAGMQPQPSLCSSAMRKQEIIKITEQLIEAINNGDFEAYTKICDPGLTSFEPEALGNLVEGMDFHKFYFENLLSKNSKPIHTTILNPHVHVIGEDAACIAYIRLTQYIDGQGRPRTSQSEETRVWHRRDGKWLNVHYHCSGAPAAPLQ
UniProt Q15131: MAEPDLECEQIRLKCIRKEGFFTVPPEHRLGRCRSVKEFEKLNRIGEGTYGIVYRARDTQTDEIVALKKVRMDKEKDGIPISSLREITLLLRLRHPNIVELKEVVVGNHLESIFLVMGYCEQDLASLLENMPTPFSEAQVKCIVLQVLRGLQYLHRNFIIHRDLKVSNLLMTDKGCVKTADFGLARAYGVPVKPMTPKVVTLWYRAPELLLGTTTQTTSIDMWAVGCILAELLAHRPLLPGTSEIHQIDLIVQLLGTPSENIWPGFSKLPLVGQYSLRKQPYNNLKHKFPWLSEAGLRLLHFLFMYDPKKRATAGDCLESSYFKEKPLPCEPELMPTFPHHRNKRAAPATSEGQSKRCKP
UniProt Q00526: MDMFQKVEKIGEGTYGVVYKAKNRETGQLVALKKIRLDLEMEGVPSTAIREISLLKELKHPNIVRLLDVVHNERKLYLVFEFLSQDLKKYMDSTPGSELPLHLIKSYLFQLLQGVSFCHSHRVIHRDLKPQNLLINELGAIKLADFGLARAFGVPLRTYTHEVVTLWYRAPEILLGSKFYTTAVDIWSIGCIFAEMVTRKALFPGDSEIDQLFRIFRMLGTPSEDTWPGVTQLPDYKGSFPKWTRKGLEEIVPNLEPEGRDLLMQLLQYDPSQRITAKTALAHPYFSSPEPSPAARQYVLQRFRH
UniProt P11802: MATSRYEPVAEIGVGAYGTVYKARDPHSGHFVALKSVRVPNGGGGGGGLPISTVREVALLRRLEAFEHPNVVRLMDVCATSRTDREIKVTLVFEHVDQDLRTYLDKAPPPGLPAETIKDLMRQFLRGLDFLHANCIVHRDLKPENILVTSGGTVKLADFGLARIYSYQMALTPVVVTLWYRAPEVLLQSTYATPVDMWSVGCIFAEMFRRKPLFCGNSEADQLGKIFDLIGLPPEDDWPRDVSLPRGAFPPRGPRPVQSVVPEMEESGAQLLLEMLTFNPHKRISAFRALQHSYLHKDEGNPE
UniProt Q00535, whole entry, looked up: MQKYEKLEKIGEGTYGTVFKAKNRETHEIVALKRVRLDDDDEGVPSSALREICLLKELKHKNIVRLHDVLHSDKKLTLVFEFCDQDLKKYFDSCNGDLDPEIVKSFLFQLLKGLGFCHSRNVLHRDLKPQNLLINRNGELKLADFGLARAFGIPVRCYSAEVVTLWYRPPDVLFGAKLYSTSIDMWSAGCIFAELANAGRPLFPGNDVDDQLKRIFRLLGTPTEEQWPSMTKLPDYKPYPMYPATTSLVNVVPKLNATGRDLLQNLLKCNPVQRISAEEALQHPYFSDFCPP
UniProt Q00534, whole entry: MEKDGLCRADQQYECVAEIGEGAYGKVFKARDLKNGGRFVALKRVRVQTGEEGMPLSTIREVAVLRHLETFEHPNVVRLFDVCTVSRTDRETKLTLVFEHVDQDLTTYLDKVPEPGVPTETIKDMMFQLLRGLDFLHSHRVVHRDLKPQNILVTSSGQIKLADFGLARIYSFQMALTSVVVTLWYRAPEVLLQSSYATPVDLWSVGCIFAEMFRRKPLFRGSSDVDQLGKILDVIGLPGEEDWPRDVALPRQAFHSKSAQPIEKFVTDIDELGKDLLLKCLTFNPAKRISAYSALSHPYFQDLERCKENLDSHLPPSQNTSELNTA

Legend:
Experiment in all cases: kinase-Nluc reporter destabilization hit call (1 = scored as downregulated) (binary); higher = compound decreases kinase abundance
Conditions in all cases: K562, 2-18 h
[1] = biological target: ABL1 (UniProt P00519)
[2] = biological target: AKT1 (UniProt P31749)
[3] = biological target: ALK (UniProt Q9UM73)
[4] = biological target: ARAF (UniProt P10398)
[5] = biological target: AURKA (UniProt O14965)
[6] = biological target: AURKB (UniProt Q96GD4)
[7] = biological target: AURKC (UniProt Q9UQB9)
[8] = biological target: BMX (UniProt P51813)
[9] = biological target: BRAF (UniProt P15056)
[10] = system: BRAF_V600E
[11] = biological target: BTK (UniProt Q06187)
[12] = biological target: CAMK2A (UniProt Q9UQM7)
[13] = biological target: CAMK2G (UniProt Q13555)
[14] = biological target: CDK10 (UniProt Q15131)
[15] = biological target: CDK2 (UniProt P24941)
[16] = biological target: CDK3 (UniProt Q00526)
[17] = biological target: CDK4 (UniProt P11802)
[18] = biological target: CDK5 (UniProt Q00535)
[19] = biological target: CDK6 (UniProt Q00534)
[20] = biological target: BLK (UniProt P51451)

Measured: kinase-Nluc reporter destabilization hit call

Cn1cc(/C=C2\C(=O)Nc3cccnc32)c2ccccc21
inactive: [1]; 10 µM 0 | [2]; 10 µM 0 | [3]; 10 µM 0 | [4]; 10 µM 0 | [5]; 10 µM 0 | [6]; 10 µM 0 | [7]; 10 µM 0 | [8]; 10 µM 0 | [9]; 10 µM 0 | [10]; 10 µM 0 | [11]; 10 µM 0 | [12]; 10 µM 0 | [13]; 10 µM 0 | [14]; 10 µM 0 | [15]; 10 µM 0 | [16]; 10 µM 0 | [17]; 10 µM 0 | [18]; 10 µM 0 | [19]; 10 µM 0

COc1cc(N2CCN(C)CC2)ccc1Nc1nccc(-c2cn(C)c3cnccc23)n1
inactive: [1]; 10 µM 0 | [2]; 10 µM 0 | [3]; 10 µM 0 | [4]; 10 µM 0 | [5]; 10 µM 0 | [6]; 10 µM 0 | [20]; 10 µM 0 | [8]; 10 µM 0 | [9]; 10 µM 0 | [10]; 10 µM 0 | [11]; 10 µM 0 | [12]; 10 µM 0 | [13]; 10 µM 0 | [14]; 10 µM 0 | [15]; 10 µM 0 | [16]; 10 µM 0 | [17]; 10 µM 0 | [18]; 10 µM 0 | [19]; 10 µM 0

C=CC(=O)N1CCC[C@@H](n2nc(-c3ccc(Oc4ccccc4)cc3)c3c(N)ncnc32)C1 [Ibrutinib]
inactive: [1]; 2.5 µM 0 | [2]; 2.5 µM 0 | [3]; 2.5 µM 0 | [4]; 2.5 µM 0 | [5]; 2.5 µM 0 | [6]; 2.5 µM 0 | [7]; 2.5 µM 0 | [20]; 2.5 µM 0 | [9]; 2.5 µM 0 | [10]; 2.5 µM 0 | [12]; 2.5 µM 0 | [13]; 2.5 µM 0 | [14]; 2.5 µM 0 | [15]; 2.5 µM 0 | [16]; 2.5 µM 0 | [17]; 2.5 µM 0 | [18]; 2.5 µM 0 | [19]; 2.5 µM 0

COc1ccc(CNC(=O)Nc2ncc([N+](=O)[O-])s2)cc1
inactive: [1]; 2.5 µM 0 | [2]; 2.5 µM 0 | [3]; 2.5 µM 0 | [4]; 2.5 µM 0 | [5]; 2.5 µM 0 | [6]; 2.5 µM 0 | [7]; 2.5 µM 0 | [8]; 2.5 µM 0 | [9]; 2.5 µM 0 | [10]; 2.5 µM 0 | [11]; 2.5 µM 0 | [12]; 2.5 µM 0 | [13]; 2.5 µM 0 | [14]; 2.5 µM 0 | [15]; 2.5 µM 0 | [16]; 2.5 µM 0 | [17]; 2.5 µM 0 | [18]; 2.5 µM 0 | [19]; 2.5 µM 0

C=CC(=O)N1CCC([C@@H]2CCNc3c(C(N)=O)c(-c4ccc(Oc5ccccc5)cc4)nn32)CC1 [Zanubrutinib]
inactive: [1]; 10 µM 0 | [2]; 10 µM 0 | [3]; 10 µM 0 | [4]; 10 µM 0 | [5]; 10 µM 0 | [6]; 10 µM 0 | [7]; 10 µM 0 | [20]; 10 µM 0 | [9]; 10 µM 0 | [10]; 10 µM 0 | [12]; 10 µM 0 | [13]; 10 µM 0 | [14]; 10 µM 0 | [15]; 10 µM 0 | [16]; 10 µM 0 | [17]; 10 µM 0 | [18]; 10 µM 0 | [19]; 10 µM 0

Cc1ccc(O)cc1Nc1ccnc(Nc2cccc(C(N)=O)c2)n1 [Lck inhibitor 2]
inactive: [1]; 10 µM 0 | [2]; 10 µM 0 | [3]; 10 µM 0 | [4]; 10 µM 0 | [5]; 10 µM 0 | [6]; 10 µM 0 | [7]; 10 µM 0 | [20]; 10 µM 0 | [9]; 10 µM 0 | [10]; 10 µM 0 | [11]; 10 µM 0 | [12]; 10 µM 0 | [13]; 10 µM 0 | [14]; 10 µM 0 | [15]; 10 µM 0 | [16]; 10 µM 0 | [17]; 10 µM 0 | [18]; 10 µM 0 | [19]; 10 µM 0

C=CC(=O)N(C)CCOc1c(N)ncnc1-c1cc(F)cc(NC(=O)c2ccc(C3CC3)cc2F)c1C [Remibrutinib]
inactive: [1]; 10 µM 0 | [2]; 10 µM 0 | [3]; 10 µM 0 | [4]; 10 µM 0 | [5]; 10 µM 0 | [6]; 10 µM 0 | [7]; 10 µM 0 | [20]; 10 µM 0 | [9]; 10 µM 0 | [10]; 10 µM 0 | [11]; 10 µM 0 | [12]; 10 µM 0 | [13]; 10 µM 0 | [14]; 10 µM 0 | [15]; 10 µM 0 | [16]; 10 µM 0 | [17]; 10 µM 0 | [18]; 10 µM 0 | [19]; 10 µM 0

C=CC(=O)N1C[C@@H](Nc2ncnc3[nH]ccc23)CC[C@H]1C [(2R,5S)-Ritlecitinib]
inactive: [1]; 10 µM 0 | [2]; 10 µM 0 | [3]; 10 µM 0 | [4]; 10 µM 0 | [5]; 10 µM 0 | [6]; 10 µM 0 | [7]; 10 µM 0 | [20]; 10 µM 0 | [9]; 10 µM 0 | [10]; 10 µM 0 | [11]; 10 µM 0 | [12]; 10 µM 0 | [13]; 10 µM 0 | [14]; 10 µM 0 | [15]; 10 µM 0 | [16]; 10 µM 0 | [17]; 10 µM 0 | [18]; 10 µM 0 | [19]; 10 µM 0

Reprinted at random: 2 records from the list
COc1ccc(CNC(=O)Nc2ncc([N+](=O)[O-])s2)cc1
inactive: [1]; 2.5 µM 0 | [2]; 2.5 µM 0 | [3]; 2.5 µM 0 | [4]; 2.5 µM 0 | [5]; 2.5 µM 0 | [6]; 2.5 µM 0 | [7]; 2.5 µM 0 | [8]; 2.5 µM 0 | [9]; 2.5 µM 0 | [10]; 2.5 µM 0 | [11]; 2.5 µM 0 | [12]; 2.5 µM 0 | [13]; 2.5 µM 0 | [14]; 2.5 µM 0 | [15]; 2.5 µM 0 | [16]; 2.5 µM 0 | [17]; 2.5 µM 0 | [18]; 2.5 µM 0 | [19]; 2.5 µM 0

Cc1ccc(O)cc1Nc1ccnc(Nc2cccc(C(N)=O)c2)n1 [Lck inhibitor 2]
inactive: [1]; 10 µM 0 | [2]; 10 µM 0 | [3]; 10 µM 0 | [4]; 10 µM 0 | [5]; 10 µM 0 | [6]; 10 µM 0 | [7]; 10 µM 0 | [20]; 10 µM 0 | [9]; 10 µM 0 | [10]; 10 µM 0 | [11]; 10 µM 0 | [12]; 10 µM 0 | [13]; 10 µM 0 | [14]; 10 µM 0 | [15]; 10 µM 0 | [16]; 10 µM 0 | [17]; 10 µM 0 | [18]; 10 µM 0 | [19]; 10 µM 0

Additional records.

CC[C@@H]1C(=O)N(C)c2cnc(Nc3ccc(C(=O)NC4CCN(C)CC4)cc3OC)nc2N1C1CCCC1
inactive: [1]; 10 µM 0 | [2]; 10 µM 0 | [3]; 10 µM 0 | [4]; 10 µM 0 | [5]; 10 µM 0 | [6]; 10 µM 0 | [7]; 10 µM 0 | [8]; 10 µM 0 | [9]; 10 µM 0 | [12]; 10 µM 0 | [13]; 10 µM 0 | [14]; 10 µM 0 | [15]; 10 µM 0 | [16]; 10 µM 0 | [17]; 10 µM 0 | [18]; 10 µM 0 | [19]; 10 µM 0

O=C1Cc2c([nH]c3ccc(Br)cc23)-c2ccccc2N1 [Kenpaullone]
inactive: [1]; 10 µM 0 | [2]; 10 µM 0 | [3]; 10 µM 0 | [4]; 10 µM 0 | [5]; 10 µM 0 | [6]; 10 µM 0 | [7]; 10 µM 0 | [8]; 10 µM 0 | [9]; 10 µM 0 | [10]; 10 µM 0 | [11]; 10 µM 0 | [12]; 10 µM 0 | [13]; 10 µM 0 | [14]; 10 µM 0 | [15]; 10 µM 0 | [16]; 10 µM 0 | [17]; 10 µM 0 | [18]; 10 µM 0 | [19]; 10 µM 0
